Test results reported in US20220380484A1 (MONASH UNIVERSITY, published 2022).
These are yes or no findings as the source states them, for the method shown. Some binding calls cover weakened binding; strength is not graded here.

Chains of the proteins cited; added tags and fusions are not shown. Lines headed by an entry give the natural chain unless they say otherwise; changes in a name come on top.
UniProt P00747: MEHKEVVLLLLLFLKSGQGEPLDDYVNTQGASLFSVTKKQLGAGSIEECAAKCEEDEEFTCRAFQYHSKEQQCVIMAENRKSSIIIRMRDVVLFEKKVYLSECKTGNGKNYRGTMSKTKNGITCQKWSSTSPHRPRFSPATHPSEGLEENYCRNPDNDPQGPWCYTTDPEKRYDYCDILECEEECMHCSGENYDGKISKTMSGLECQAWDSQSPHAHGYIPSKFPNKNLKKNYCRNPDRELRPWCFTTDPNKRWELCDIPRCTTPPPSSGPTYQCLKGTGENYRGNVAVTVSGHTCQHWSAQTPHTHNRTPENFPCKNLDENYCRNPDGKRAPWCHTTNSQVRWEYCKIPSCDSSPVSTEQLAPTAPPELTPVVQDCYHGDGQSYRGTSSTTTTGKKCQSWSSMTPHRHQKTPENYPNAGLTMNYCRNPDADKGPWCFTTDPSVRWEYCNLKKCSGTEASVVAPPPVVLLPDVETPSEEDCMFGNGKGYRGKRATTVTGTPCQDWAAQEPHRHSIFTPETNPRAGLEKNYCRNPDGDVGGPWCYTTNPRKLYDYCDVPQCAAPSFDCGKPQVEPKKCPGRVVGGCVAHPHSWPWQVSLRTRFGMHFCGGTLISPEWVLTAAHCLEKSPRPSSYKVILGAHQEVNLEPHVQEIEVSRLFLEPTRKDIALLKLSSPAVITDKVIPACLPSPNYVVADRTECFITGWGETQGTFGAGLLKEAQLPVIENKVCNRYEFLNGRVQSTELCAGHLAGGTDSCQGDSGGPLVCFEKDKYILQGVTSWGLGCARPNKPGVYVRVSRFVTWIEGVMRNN

Columns and labels:
[1] = target: recombinant kringle 5-serine protease domain (KR5-SP) (human) (UniProt P00747); test: size-exclusion chromatography, Superdex 200 16/60
[2] = target: recombinant kringle 5-serine protease domain (KR5-SP) (human) (UniProt P00747); test: X-ray crystal structure
[3] = target: recombinant kringle 5-serine protease domain (KR5-SP) (human) (UniProt P00747); test: X-ray crystal structure of the scFv fragment of G05 with KR5-SP
plasmin [4] = target: T1, plasmin (human, UniProt P00747 20-580; P00747 581-810); test: SPR, multi-cycle; G05 immobilised, plasmin injected; 1:1 Langmuir fit
T1 construct: Bought plasmin (Haematologic Technologies) is named in the activity assay; also called Plm; PLM

[5] = target: recombinant kringle 5-serine protease domain (KR5-SP) (human) (UniProt P00747); test: size-exclusion chromatography
[6] = target: recombinant kringle 5-serine protease domain (KR5-SP) (human) (UniProt P00747); test: X-ray crystal structure, 2.0 Å
plasmin [7] = target: T1, plasmin; test: SPR, multi-cycle; G05 immobilised on the chip, plasmin injected as analyte
plasmin [8] = target: T1, plasmin; test: SPR (Biacore T200), antibody immobilised; FIG. 1

Measured: binding

B1: G05 antibody (scFv, V domains shown)
VH: AVTLDESGGGLQTPGRALSLVCKASGFTFSSYAMHWVRQAPGKGLEFVAGIDNIGSYTRYGAAVKGRVTISRDNGQSIVRLQLDNLRAEDTGTYYCAKSAYGGSCCGPAYIDAWGHGTEVIVSS
VL: QAALTQPSSVSANPGETVEITCSGGGRSSYYGWYQQKSPGSAPVTLIYDNTNRPSNIPSRFSGSKSGSTATLTITGVQGEDEAVYFCGSADSSTTGIFGAGTTLTVL
notes: Chicken antibody from an scFv library (VH and VL joined by a flexible linker); also called scFv fragment of G05
binds: all assays above
